Laboratory results reported in patent US20130171152A1.
No constants are given. Whether binding was seen depends on the method and setting. Some entries that bind do so weakly or less than the wild type.

How the values were obtained:
[1] = molecular target: Homo sapiens MUC16 (GenBank NP-078966) (human); assay: FACS on OVCAR3 cells, subclone
[2] = molecular target: Homo sapiens MUC16 (GenBank NP-078966) (human); assay: FACS on OVCAR3 wild type cells
[3] = molecular target: Homo sapiens MUC16 (GenBank NP-078966) (human); assay: FACS on OVCAR3 cells, hybridoma sup 1:1
[4] = molecular target: Homo sapiens MUC16 (GenBank NP-078966) (human); assay: saturation binding of 131I-labelled antibody on intact OVCAR-3 cells

- binding [1]: binds
- binding [2]: binds
- binding [3]: binds
- binding [4]: binds
B1: 4A5.37 (antibody, IgG1, V domains shown)
VH: VKLEESGGGFVKPGGSLKISCAASGFTFRNYAMSWVRLSPEMRLEWVATISSAGGYIFYSDSVQGRFTISRDNAKNTLHLQMGSLRSGDTAMYYCARQGFGNYGDYYAMDYWGQGTTVTVSS
VL: DIELTQSPSSLAVSAGEKVTMSCKSSQSLLNSRTRKNQLAWYQQKTGQSPELLIYWASTRQSGVPDRFTGSGSGTDFTLTISSVQAEDLAVYYCQQSYNLLTFGPGTKLEIKR
